Results as given in PubChem BioAssay AID330 (DTP/NCI, 2004).
The list shows only some results of the screen, not a fair sample: it is rich in T/C values a quarter to a half above the control, in often repeated tests (any T/C) and in doses without a T/C. Other doses and runs of a compound stand elsewhere. T/C: endpoint of the treated group in % of that of the vehicle group. Some doses have a count of surviving animals in place of a T/C: the source holds a T/C of zero for them, seemingly a mark for toxic or unscored doses. Some doses without a T/C left all or most animals alive at the check, yet need not have been tolerated: survival well below the control is almost never listed, so the zero probably covers shortened survival too. Counts of survivors are from the toxicity check (mostly the fifth day) where no day follows; animals may have died later. Schedule codes are those of the source, read here as Q, the interval in days (D) or hours (H), X, the number of doses. Some doses were run more than once; the results are listed from low to high. For survival time, the PubChem record calls one and a half times the control and up active, and a quarter to a half above the control has no call in these data; cut-offs in other NCI protocols can differ. Some T/C values carry the count of animals alive at the toxicity check (mostly the fifth day); without a count, all were alive then.

Test system: P388 leukemia ip, CD2F1 mice, survival T/C
Experiment: NCI In Vivo Anticancer Drug Screen. Data for tumor model P388 Leukemia (intraperitoneal) in CD2F1 (CDF1) mice
Details: T/C endpoint: median survival time, higher T/C = longer survival
[1] = dose: 50.0 mg/kg/injection, schedule: Q01DX009 (ip), vehicle: saline with Tween-80
[2] = dose: 100.0 mg/kg/injection, schedule: Q01DX009 (ip), vehicle: saline with Tween-80
[3] = dose: 200.0 mg/kg/injection, schedule: Q01DX009 (ip), vehicle: saline with Tween-80
[4] = dose: 400.0 mg/kg/injection, schedule: Q01DX009 (ip), vehicle: saline with Tween-80
[5] = dose: 240.0 mg/kg/injection, schedule: Q01DX005 (ip), vehicle: Klucel (hydroxypropylcellulose) (HPC)
[6] = dose: 200.0 mg/kg/injection, schedule: Q01DX005 (ip), vehicle: Klucel (hydroxypropylcellulose) (HPC)
[7] = dose: 100.0 mg/kg/injection, schedule: Q01DX009 (ip), vehicle: Klucel (hydroxypropylcellulose) (HPC)
[8] = dose: 200.0 mg/kg/injection, schedule: Q01DX009 (ip), vehicle: Klucel (hydroxypropylcellulose) (HPC)
[9] = dose: 240.0 mg/kg/injection, schedule: Q01DX005 (ip), vehicle: saline with Tween-80

For Cc1ccc2cc3c(ccc4ccccc43)c3c2c1CC3, the T/C (dose: 12.5 mg/kg/injection, schedule: Q01DX009 (ip), vehicle: saline with Tween-80) was 127 % of control, the T/C (dose: 22.0 mg/kg/injection, schedule: Q01DX009 (ip), vehicle: saline with Tween-80) was 146 % of control and the T/C (dose: 25.0 mg/kg/injection, schedule: Q01DX009 (ip), vehicle: saline with Tween-80) was 136 % of control. The T/C [1] was 132 and 140 % of control, the T/C (dose: 50.0 mg/kg/injection, schedule: Q04DX003 (ip), vehicle: saline with Tween-80) was 140 % of control and the T/C (dose: 75.0 mg/kg/injection, schedule: Q01DX009 (ip), vehicle: saline with Tween-80) was 128 % of control. For the same molecule, the T/C (dose: 88.0 mg/kg/injection, schedule: Q04DX003 (ip), vehicle: saline with Tween-80) was 133 % of control, the T/C [2] was 136 % of control and the T/C (dose: 100.0 mg/kg/injection, schedule: Q04DX003 (ip), vehicle: saline with Tween-80) was 131 % of control. The T/C (dose: 132.0 mg/kg/injection, schedule: Q04DX003 (ip), vehicle: saline with Tween-80) was 133 % of control, the T/C [3] was 132 % of control and the T/C [4] was 132 % of control.
In the case of N/C(=C\c1cnc2ccccc2n1)c1ccccc1Cl, the survivor count [5] is reported as 6 of 6.
For COc1ccc(C2OC3=C(Nc4cc(C)c(C)cc4N3)C2=O)cc1 (stereo not drawn), the survivor count [5] was 6 of 6.
For Cc1ccc2c(c1O)NC(O)c1cccn1C2=O (stereo not drawn), the survivor count (dose: 40.0 mg/kg/injection, schedule: Q01DX005 (ip), vehicle: distilled water + Tween-80) was 6 of 6.
With FC(F)(F)C1=C(C(F)(F)F)SP(Cl)(c2ccccc2)(c2ccccc2)S1 the survivor count (dose: 400.0 mg/kg/injection, schedule: Q04DX003 (ip), vehicle: other) was 5 of 6.
For COC(=O)OC(C#N)c1ccccc1[N+](=O)[O-] (stereo not drawn), the survivor count (dose: 12.5 mg/kg/injection, schedule: Q01DX009 (ip), vehicle: suspension in saline) was 5 of 6, the survivor count (dose: 25.0 mg/kg/injection, schedule: Q01DX009 (ip), vehicle: suspension in saline) was 5 of 6 and the survivor count (dose: 50.0 mg/kg/injection, schedule: Q01DX009 (ip), vehicle: saline) was 4 of 6. The survivor count (dose: 100.0 mg/kg/injection, schedule: Q01DX009 (ip), vehicle: saline) was 4 of 6.
For CC1(C)NC(=O)N(CCCCCCN2C(=O)NC(C)(C)C2=O)C1=O, the survivor count [6] was 6 of 6.
For CCC1CN2CCc3cc(OC)c(OC)cc3C2CC1=O (stereo not drawn), the T/C (dose: 150.0 mg/kg/injection, schedule: Q04DX003 (ip), vehicle: saline with Tween-80) was 126 % of control, the T/C (dose: 300.0 mg/kg/injection, schedule: Q04DX003 (ip), vehicle: saline with Tween-80) was 128 % of control and the survivor count [4] was 3 of 6.
In the case of CCCCCCOC(CN(C)C)C(Cl)(Cl)Cl (stereo not drawn), the T/C (dose: 200.0 mg/kg/injection, schedule: Q01DX009 (ip), vehicle: suspension in saline) is reported as 133 % of control [5 of 6 alive].
N#CN=[N+]([O-])c1ccccc1Br was tested, and the survivor count (dose: 50.0 mg/kg/injection, schedule: Q04DX003 (ip), vehicle: Klucel (hydroxypropylcellulose) (HPC)) was 6 of 6.
With C[n+]1ccccc1-c1nc(-c2cccc[n+]2C)nc(-c2cccc[n+]2C)n1 the survivor count (dose: 50.0 mg/kg/injection, schedule: Q01DX009 (ip), vehicle: Klucel (hydroxypropylcellulose) (HPC)) was 5 of 6 and 6 of 6, the survivor count [7] was 3 of 6 and the survivor count [8] was 0 of 6.
In the case of O=C1CSc2ccccc2N1, the survivor count [7] is reported as 5 of 6.
With CCN(CC)CCSCCCNc1cc(C)nc2c1ccc1c2ccc2c(NCCCSCCN(CC)CC)cc(C)nc21 the survivor count (dose: 12.5 mg/kg/injection, schedule: Q01DX009 (ip), vehicle: distilled water + Tween-80) was 0 of 6, the survivor count (dose: 25.0 mg/kg/injection, schedule: Q01DX009 (ip), vehicle: distilled water + Tween-80) was 1 of 6 and the survivor count (dose: 50.0 mg/kg/injection, schedule: Q01DX009 (ip), vehicle: distilled water + Tween-80) was 0 of 6. For the same molecule, the survivor count (dose: 100.0 mg/kg/injection, schedule: Q01DX009 (ip), vehicle: distilled water + Tween-80) was 0 of 6.
With O=c1oc2ccccc2c(O)c1C=Nc1ccccc1 the survivor count [1] was 4 of 6 and 6 of 6, the survivor count [2] was 0 of 6 and the survivor count [3] was 0 of 6.
In the case of CCCCC/C(=C\c1ccccc1)C1OCC(COCC)O1 (stereo not drawn), the survivor count (dose: 400.0 mg/kg/injection, schedule: Q01DX009 (ip), vehicle: saline + Tween-80 + alcohol) is reported as 3 of 6.
For CCCC(C)(O)/C(C)=N/O (stereo not drawn), the survivor count [2] was 6 of 6.
CCN1CC(O)Cc2ccccc21 (stereo not drawn) was tested, and the survivor count [9] was 0 of 6.
With CCC[CH2][Sn]([CH2]CCN(C)C)([CH2]CCN(C)C)[CH2]CCN(C)C the survivor count [3] was 0 of 6.
CCN1c2ccccc2S(=O)(=O)n2c(COc3ccccc3)nnc21 was tested, and the survivor count (dose: 100.0 mg/kg/injection, schedule: Q01DX001 (ip), vehicle: saline with Tween-80) was 6 of 6, the survivor count (dose: 200.0 mg/kg/injection, schedule: Q01DX001 (ip), vehicle: saline with Tween-80) was 6 of 6 and the survivor count (dose: 400.0 mg/kg/injection, schedule: Q01DX001 (ip), vehicle: saline with Tween-80) was 6 of 6.
In the case of COC1OC(C(C)O)C2OC(C)(C)OC12 (stereo not drawn), the survivor count (dose: 120.0 mg/kg/injection, schedule: Q01DX005 (ip), vehicle: saline with Tween-80) is reported as 6 of 6.
In the case of O=C(CN1CCCCCC1)Nc1ccc2c(c1)C(=O)c1ccc(NC(=O)CN3CCCCCC3)cc1C2=O, the survivor count [6] is reported as 6 of 6.
CCC[CH2][Sn]([CH2]CCC)([S]C#N)[S]C#N was tested, and the T/C (dose: 0.75 mg/kg/injection, schedule: Q01DX009 (ip), vehicle: saline with Tween-80) was 125 and 126 % of control, the T/C (dose: 1.5 mg/kg/injection, schedule: Q01DX009 (ip), vehicle: saline with Tween-80) was 127 and 128 % of control and the survivor count (dose: 6.0 mg/kg/injection, schedule: Q01DX009 (ip), vehicle: saline with Tween-80) was 3 of 6. For the same molecule, the survivor count (dose: 12.0 mg/kg/injection, schedule: Q01DX009 (ip), vehicle: saline with Tween-80) was 0 of 6.
COc1c(O)c(O)cc2c1-c1ccc(OC)c(=O)cc1C(NC(C)=O)CC2 (stereo not drawn) was tested, and the T/C (dose: 5.0 mg/kg/injection, schedule: Q01DX009 (ip), vehicle: water) was 125 and 144 % of control, the T/C (dose: 10.0 mg/kg/injection, schedule: Q01DX009 (ip), vehicle: water) was 137 and 149 % of control and the survivor count (dose: 80.0 mg/kg/injection, schedule: Q01DX009 (ip), vehicle: water) was 4 of 6.
For C=CC[n+]1ccc(/C=N\NC(N)=S)c2ccccc21, the survivor count [3] was 0 of 6.
In the case of N#CC(=Nc1cccc(F)c1)C1=C(O)c2ccccc2C1=O, the survivor count [9] is reported as 5 of 6.
With CNC(=O)Oc1ccc(Sc2ccc(OC(=O)NC)c(Cl)c2)cc1Cl the T/C (dose: 200.0 mg/kg/injection, schedule: Q01DX005 (ip), vehicle: saline with Tween-80) was 127 % of control.
In the case of Cn1c(=O)[nH]c2nncnc2c1=O, the survivor count (dose: 50.0 mg/kg/injection, schedule: Q01DX009 (ip), vehicle: water) is reported as 2 of 6 and the survivor count (dose: 100.0 mg/kg/injection, schedule: Q01DX009 (ip), vehicle: water) is reported as 0 of 6.
CCOC1=N[C@H]2CCCC[C@H]2N1 was tested, and the survivor count (dose: 120.0 mg/kg/injection, schedule: Q01DX005 (ip), vehicle: saline) was 0 of 6 and the survivor count (dose: 240.0 mg/kg/injection, schedule: Q01DX005 (ip), vehicle: saline) was 0 of 6.
With C=CC(=O)NC1(c2ccccc2)CN2CCC1CC2 (stereo not drawn) the survivor count [7] was 0 of 6, the survivor count [8] was 0 of 6 and the survivor count (dose: 400.0 mg/kg/injection, schedule: Q01DX009 (ip), vehicle: Klucel (hydroxypropylcellulose) (HPC)) was 0 of 6.
